According to the supplement of paper PMC10849652:
The list shows a part of the results.

Amino acid sequences for entries named in this document (tags omitted). A change or cut given only in a name is not applied to a line headed by its entry.
UniProt Q12933: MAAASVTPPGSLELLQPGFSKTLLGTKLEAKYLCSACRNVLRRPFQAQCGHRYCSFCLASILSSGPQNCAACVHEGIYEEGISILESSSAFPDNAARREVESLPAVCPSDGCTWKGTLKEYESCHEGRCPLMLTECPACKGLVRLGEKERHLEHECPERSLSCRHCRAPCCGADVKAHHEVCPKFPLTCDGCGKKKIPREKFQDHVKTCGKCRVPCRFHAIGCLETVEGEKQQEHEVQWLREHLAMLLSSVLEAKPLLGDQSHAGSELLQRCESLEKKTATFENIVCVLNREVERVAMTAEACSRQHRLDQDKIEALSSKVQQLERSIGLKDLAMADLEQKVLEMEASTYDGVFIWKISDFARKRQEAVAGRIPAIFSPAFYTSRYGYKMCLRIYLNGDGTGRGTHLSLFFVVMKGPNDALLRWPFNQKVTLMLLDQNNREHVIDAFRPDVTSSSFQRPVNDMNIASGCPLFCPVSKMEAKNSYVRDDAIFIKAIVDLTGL
UniProt Q8NCE0: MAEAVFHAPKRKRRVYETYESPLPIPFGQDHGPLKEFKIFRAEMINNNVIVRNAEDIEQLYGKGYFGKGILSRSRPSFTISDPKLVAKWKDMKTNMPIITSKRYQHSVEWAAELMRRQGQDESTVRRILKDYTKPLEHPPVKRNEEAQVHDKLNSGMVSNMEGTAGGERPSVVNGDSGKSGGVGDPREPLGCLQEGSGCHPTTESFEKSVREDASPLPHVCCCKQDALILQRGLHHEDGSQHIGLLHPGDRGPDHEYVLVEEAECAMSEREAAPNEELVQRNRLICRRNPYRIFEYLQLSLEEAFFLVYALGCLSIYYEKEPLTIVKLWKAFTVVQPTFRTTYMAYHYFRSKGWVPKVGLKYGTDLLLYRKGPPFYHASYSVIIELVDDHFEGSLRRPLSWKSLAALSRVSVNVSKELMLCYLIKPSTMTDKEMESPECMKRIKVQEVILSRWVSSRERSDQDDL
UniProt Q15785: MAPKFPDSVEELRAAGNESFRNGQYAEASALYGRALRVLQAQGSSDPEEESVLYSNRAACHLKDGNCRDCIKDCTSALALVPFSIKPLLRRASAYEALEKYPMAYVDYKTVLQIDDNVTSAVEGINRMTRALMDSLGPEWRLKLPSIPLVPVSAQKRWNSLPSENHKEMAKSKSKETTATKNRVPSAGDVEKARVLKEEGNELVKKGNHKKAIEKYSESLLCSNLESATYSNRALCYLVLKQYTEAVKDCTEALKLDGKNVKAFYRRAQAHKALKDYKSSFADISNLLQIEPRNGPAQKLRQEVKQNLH
UniProt Q96Q11: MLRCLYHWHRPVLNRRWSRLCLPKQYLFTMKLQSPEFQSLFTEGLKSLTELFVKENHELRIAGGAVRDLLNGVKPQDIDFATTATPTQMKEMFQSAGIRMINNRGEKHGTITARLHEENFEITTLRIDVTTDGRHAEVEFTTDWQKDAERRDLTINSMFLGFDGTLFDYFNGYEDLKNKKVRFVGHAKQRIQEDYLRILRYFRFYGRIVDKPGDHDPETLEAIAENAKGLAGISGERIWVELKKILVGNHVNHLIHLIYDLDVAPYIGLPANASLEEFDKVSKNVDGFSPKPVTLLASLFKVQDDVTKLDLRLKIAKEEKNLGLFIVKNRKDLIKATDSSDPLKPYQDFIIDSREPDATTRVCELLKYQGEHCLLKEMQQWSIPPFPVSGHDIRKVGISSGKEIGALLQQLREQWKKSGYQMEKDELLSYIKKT
UniProt P48553, whole entry, looked up: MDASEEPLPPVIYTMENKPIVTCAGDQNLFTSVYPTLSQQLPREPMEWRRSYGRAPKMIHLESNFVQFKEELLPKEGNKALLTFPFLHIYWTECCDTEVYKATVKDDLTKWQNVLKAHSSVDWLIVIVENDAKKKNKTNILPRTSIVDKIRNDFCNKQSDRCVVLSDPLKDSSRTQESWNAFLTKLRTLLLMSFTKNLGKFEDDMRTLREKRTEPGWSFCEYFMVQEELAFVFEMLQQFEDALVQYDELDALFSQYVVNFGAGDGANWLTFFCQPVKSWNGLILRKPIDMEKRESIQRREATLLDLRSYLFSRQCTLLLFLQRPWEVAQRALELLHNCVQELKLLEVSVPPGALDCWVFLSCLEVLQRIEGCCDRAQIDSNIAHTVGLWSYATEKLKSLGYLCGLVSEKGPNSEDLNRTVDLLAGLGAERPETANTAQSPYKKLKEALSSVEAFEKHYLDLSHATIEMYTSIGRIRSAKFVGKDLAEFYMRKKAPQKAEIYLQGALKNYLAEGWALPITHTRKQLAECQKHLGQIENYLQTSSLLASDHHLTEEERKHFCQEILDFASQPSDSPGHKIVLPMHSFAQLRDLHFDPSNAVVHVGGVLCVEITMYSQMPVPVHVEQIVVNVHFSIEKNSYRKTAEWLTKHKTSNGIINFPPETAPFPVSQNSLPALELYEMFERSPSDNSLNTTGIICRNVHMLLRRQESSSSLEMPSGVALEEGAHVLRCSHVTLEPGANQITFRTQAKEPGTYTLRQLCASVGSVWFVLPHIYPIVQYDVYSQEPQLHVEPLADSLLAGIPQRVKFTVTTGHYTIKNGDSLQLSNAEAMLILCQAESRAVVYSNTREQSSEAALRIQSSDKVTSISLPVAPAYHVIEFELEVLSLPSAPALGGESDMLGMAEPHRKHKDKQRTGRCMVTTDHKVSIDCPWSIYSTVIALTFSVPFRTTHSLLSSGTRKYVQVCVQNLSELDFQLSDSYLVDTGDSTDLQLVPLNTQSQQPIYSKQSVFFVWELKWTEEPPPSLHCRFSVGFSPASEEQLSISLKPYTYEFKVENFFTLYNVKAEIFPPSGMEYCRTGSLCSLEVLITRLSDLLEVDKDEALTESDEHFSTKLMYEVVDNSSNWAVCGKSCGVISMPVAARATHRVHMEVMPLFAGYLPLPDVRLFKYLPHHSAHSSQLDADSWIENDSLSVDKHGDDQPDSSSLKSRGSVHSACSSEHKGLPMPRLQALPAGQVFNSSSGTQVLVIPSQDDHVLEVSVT
UniProt P12270, whole entry, looked up: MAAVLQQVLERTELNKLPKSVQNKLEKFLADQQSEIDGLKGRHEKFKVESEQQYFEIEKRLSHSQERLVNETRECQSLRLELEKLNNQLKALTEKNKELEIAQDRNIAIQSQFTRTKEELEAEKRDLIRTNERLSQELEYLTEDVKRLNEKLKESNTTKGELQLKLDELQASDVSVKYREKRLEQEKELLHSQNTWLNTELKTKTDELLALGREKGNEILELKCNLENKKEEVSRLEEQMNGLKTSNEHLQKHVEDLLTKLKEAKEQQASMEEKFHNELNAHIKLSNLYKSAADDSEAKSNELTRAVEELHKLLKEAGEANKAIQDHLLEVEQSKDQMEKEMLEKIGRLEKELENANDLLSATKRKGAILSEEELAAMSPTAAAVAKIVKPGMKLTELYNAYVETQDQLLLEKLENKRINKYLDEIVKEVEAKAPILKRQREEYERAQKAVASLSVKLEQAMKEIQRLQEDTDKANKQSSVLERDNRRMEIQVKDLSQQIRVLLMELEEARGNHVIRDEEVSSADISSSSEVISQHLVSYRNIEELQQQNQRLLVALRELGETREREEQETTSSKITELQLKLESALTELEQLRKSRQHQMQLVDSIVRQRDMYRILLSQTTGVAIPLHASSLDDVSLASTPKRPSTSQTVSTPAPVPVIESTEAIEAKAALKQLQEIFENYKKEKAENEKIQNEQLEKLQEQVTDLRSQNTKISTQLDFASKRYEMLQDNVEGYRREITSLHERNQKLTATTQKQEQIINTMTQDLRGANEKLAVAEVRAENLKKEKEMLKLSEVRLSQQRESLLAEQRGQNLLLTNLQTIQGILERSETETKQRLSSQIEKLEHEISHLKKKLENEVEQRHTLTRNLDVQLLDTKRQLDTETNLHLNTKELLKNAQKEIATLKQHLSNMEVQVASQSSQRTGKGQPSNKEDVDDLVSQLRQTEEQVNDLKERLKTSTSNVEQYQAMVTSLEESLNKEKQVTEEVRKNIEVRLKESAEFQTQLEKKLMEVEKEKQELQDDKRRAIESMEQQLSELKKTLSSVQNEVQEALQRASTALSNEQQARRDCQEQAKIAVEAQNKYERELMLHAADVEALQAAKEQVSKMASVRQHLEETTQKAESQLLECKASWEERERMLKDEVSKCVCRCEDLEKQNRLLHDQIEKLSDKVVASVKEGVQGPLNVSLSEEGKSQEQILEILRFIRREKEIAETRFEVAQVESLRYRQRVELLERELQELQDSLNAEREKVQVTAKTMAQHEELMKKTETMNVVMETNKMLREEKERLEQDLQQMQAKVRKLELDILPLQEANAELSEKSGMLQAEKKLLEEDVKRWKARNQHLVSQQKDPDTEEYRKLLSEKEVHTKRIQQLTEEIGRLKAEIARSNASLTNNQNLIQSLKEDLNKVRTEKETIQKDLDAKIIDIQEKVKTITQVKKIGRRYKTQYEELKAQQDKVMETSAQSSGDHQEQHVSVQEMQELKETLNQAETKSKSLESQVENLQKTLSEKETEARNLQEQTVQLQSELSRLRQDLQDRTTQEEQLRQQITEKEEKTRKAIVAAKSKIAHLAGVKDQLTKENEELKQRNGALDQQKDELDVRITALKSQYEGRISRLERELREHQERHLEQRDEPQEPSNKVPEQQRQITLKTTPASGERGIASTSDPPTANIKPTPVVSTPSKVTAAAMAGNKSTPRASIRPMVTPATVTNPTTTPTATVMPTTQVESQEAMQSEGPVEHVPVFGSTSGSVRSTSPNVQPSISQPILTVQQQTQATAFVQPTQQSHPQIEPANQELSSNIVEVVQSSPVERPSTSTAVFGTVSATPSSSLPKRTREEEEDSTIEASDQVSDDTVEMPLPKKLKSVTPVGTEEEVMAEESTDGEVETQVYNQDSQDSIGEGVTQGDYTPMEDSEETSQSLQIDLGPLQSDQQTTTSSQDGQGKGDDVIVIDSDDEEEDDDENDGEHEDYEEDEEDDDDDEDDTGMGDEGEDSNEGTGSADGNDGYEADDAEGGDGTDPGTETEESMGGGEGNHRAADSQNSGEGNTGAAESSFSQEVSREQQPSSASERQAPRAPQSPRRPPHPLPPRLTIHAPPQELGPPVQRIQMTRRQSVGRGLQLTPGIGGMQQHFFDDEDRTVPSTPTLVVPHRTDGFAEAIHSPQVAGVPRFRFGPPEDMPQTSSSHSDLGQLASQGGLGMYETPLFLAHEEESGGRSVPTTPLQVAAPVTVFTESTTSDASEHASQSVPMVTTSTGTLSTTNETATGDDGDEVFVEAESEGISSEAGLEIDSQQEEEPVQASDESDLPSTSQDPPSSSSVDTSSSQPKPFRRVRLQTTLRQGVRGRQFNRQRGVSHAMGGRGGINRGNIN
UniProt P29144: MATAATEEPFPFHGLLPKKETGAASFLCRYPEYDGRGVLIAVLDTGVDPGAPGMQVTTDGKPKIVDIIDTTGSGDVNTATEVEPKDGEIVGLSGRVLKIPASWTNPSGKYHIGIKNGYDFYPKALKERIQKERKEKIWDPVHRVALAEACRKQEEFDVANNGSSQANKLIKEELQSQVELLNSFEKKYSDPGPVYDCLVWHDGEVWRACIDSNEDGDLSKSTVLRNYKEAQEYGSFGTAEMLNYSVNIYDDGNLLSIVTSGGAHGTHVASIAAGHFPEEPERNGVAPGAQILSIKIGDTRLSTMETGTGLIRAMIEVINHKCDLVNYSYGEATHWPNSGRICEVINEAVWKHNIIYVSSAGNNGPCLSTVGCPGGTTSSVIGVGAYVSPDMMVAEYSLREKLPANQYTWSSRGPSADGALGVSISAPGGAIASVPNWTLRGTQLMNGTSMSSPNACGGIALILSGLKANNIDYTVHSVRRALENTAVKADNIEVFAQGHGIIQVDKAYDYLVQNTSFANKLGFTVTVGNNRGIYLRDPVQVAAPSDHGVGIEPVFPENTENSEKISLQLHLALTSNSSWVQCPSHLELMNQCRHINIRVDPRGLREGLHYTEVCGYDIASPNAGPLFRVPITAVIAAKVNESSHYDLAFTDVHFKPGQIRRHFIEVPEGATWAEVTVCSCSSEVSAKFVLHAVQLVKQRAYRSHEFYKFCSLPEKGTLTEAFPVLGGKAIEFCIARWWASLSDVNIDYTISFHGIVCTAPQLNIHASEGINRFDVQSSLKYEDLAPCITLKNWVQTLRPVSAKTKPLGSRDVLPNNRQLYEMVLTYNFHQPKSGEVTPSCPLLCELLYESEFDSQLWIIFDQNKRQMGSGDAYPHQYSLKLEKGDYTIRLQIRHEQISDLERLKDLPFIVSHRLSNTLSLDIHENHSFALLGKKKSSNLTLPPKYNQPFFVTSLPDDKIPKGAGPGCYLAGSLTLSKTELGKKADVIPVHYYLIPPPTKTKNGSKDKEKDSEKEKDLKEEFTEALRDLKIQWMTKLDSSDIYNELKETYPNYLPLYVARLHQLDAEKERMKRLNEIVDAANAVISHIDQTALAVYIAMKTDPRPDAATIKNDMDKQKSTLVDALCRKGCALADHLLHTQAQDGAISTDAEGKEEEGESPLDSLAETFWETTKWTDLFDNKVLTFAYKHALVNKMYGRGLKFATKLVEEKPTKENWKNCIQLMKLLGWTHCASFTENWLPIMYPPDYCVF

What was measured:
Assay in all cases: log2 fold change, soluble protein after heating vs DMSO (PISA); higher = thermal stabilisation; K562 cells, 10 uM, 30 min; active = over 0.2 and 3.5 SD of the protein, either way, in both replicates (recomputed)
[1] = compound: Cc1ccc(NC(=O)c2ccc(CN3CC[C@H](N(C)C)C3)c(C(F)(F)F)c2)cc1Nc1nccc(-c2cncnc2)n1 [bafetinib]
In short: (§1)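 K562 cells at 2×10^6 cells/mL were treated for 30 min with 10 μM compound, and aliquots were heated for 3 min over 48°C-58°C before pooling. Extraction used PBS with 0.5% NP-40 at 4°C, and soluble protein was the supernatant after 21,000xg for 90 min, measured by TMTpro 16plex LC-MS/MS with channel sums equalised. Thermal stability values, relative to control samples and from duplicates, are log2 fold changes.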

[2] = compound: Cc1cccc(CC(=O)N2CCc3c2ccc(-c2cn(C)c4ncnc(N)c24)c3F)n1
In short: as §1

[3] = compound: Cc1cn(-c2cc(NC(=O)c3ccc(C)c(Nc4nccc(-c5cccnc5)n4)c3)cc(C(F)(F)F)c2)cn1 [nilotinib]
In short: as §1

[4] = compound: Cc1nc(Nc2n[nH]c3c2CN(C(=O)N[C@H](CN(C)C)c2ccccc2)C3(C)C)c2sccc2n1
In short: as §1

[5] = compound: Cc1nc(Nc2ncc(C(=O)Nc3c(C)cccc3Cl)s2)cc(N2CCN(CCO)CC2)n1 [dasatinib]
In short: as §1

[6] = compound: Cc1ncc(-c2ccnc(Nc3ccc(S(C)(=O)=O)cc3)n2)n1C(C)C
In short: as §1

[7] = compound: Cn1cc(-c2ccc3c(c2)CCN3C(=O)Cc2cccc(C(F)(F)F)c2)c2c(N)ncnc21
In short: as §1

[8] = compound: Cn1cc(-c2ccc3nnc(C(F)(F)c4ccc5ncccc5c4)n3n2)cn1
In short: as §1

[9] = compound: Cn1cncc1[C@@](N)(c1ccc(Cl)cc1)c1ccc2c(c1)c(-c1cccc(Cl)c1)cc(=O)n2C [tipifarnib]
In short: as §1

[10] = compound: FC(F)(F)c1ccc(/C=C/c2nc(COc3ccc(CCCCn4ccnn4)cc3)co2)cc1 [mubritinib]
In short: as §1

Measured: log2 fold change

TRAPPC12 (UniProt Q8WVT3)
inactive: [1] -0.035 | [2] 0.044 | [3] -0.07 | [4] -0.068 | [5] -0.203 | [6] -0.003 | [7] -0.017 | [8] -0.034 | [9] -0.123 | [10] 0.028

TRMT112 (UniProt Q9UI30)
inactive: [1] -0.023 | [2] -0.061 | [3] -0.014 | [4] -0.002 | [5] -0.081 | [6] -0.022 | [7] 0 | [8] 0.081 | [9] -0.099 | [10] -0.017

TOE1 (UniProt Q96GM8)
inactive: [1] 0.301 | [2] 0.033 | [3] 0.152 | [4] 0.178 | [5] 0.097 | [6] 0.017 | [7] -0.113 | [8] -0.072 | [9] -0.036 | [10] 0.111

TRIM33 (UniProt Q9UPN9)
inactive: [1] -0.022 | [2] 0.015 | [3] -0.034 | [4] 0.088 | [5] -0.299 | [6] 0.038 | [7] -0.061 | [8] 0.09 | [9] -0.044 | [10] -0.048

TOX4 (UniProt O94842)
inactive: [1] 0.026 | [2] -0.118 | [3] -0.003 | [4] 0.039 | [5] 0.066 | [6] 0.013 | [7] -0.137 | [8] -0.117 | [9] 0.17 | [10] -0.1

TP53BP1 isoform 2 (UniProt Q12888)
inactive: [1] 0.004 | [2] 0.008 | [3] -0.001 | [4] -0.011 | [5] -0.009 | [6] -0.027 | [7] -0.064 | [8] -0.014 | [9] 0.016 | [10] -0.002

TPX2 (UniProt Q9ULW0)
inactive: [1] -0.013 | [2] -0.017 | [3] 0.025 | [4] 0.176 | [5] 0.159 | [6] -0.11 | [7] -0.025 | [8] -0.038 | [9] 0.1 | [10] -0.051

TRMT6 (UniProt Q9UJA5)
inactive: [1] -0.031 | [2] 0.03 | [3] -0.006 | [4] 0.022 | [5] 0.114 | [6] -0.029 | [7] -0.046 | [8] -0.028 | [9] 0.098 | [10] -0.059

TSC22D4 (UniProt Q9Y3Q8)
inactive: [1] -0.08 | [2] -0.01 | [3] -0.061 | [4] -0.068 | [5] -0.046 | [6] -0.008 | [7] 0.035 | [8] -0.008 | [9] 0.009 | [10] 0.024

TRAPPC4 (UniProt Q9Y296)
inactive: [1] 0.001 | [2] 0.01 | [3] -0.034 | [4] -0.066 | [5] -0.027 | [6] -0.034 | [7] -0.023 | [8] 0.042 | [9] 0.03 | [10] -0.011

TPD52L1 (UniProt Q16890)
inactive: [1] -0.024 | [2] 0.013 | [3] 0.005 | [4] 0.045 | [5] 0 | [6] -0.01 | [7] 0.04 | [8] -0.074 | [9] -0.039 | [10] 0.053

TOMM40L (UniProt Q969M1)
inactive: [1] -0.057 | [2] 0.042 | [3] -0.008 | [4] 0.033 | [5] 0.039 | [6] -0.027 | [7] -0.028 | [8] 0.014 | [9] 0.12 | [10] 0.049

TOMM70 (UniProt O94826)
inactive: [1] 0.008 | [2] 0.029 | [3] -0.002 | [4] -0.027 | [5] -0.057 | [6] 0.026 | [7] 0.017 | [8] -0.011 | [9] -0.038 | [10] 0.01

TNPO2 (UniProt O14787)
inactive: [1] -0.004 | [2] 0.129 | [3] -0.122 | [4] -0.111 | [5] -0.173 | [6] -0.087 | [7] -0.076 | [8] -0.011 | [9] -0.011 | [10] 0.043

TRAF2 (UniProt Q12933)
inactive: [1] -0.027 | [2] -0.024 | [3] 0.004 | [4] -0.018 | [5] -0.033 | [6] -0.014 | [7] 0.026 | [8] -0.008 | [9] -0.01 | [10] 0.027

TSEN2 (UniProt Q8NCE0)
inactive: [1] 0.008 | [2] 0.032 | [3] -0.05 | [4] -0.112 | [5] -0.132 | [6] -0.034 | [7] 0.05 | [8] -0.013 | [9] -0.005 | [10] -0.16

TOMM34 (UniProt Q15785)
inactive: [1] 0.06 | [2] 0.047 | [3] -0.084 | [4] -0.084 | [5] -0.328 | [6] 0.031 | [7] 0.014 | [8] -0.009 | [9] -0.073 | [10] 0.006

TRNT1 (UniProt Q96Q11)
inactive: [1] -0.075 | [2] -0.063 | [3] -0.073 | [4] 0.034 | [5] -0.076 | [6] 0.007 | [7] 0.027 | [8] -0.011 | [9] -0.008 | [10] -0.067

TOR1AIP2 (UniProt Q8NFQ8)
inactive: [1] -0.012 | [2] -0.01 | [3] 0.013 | [4] 0.059 | [5] 0.011 | [6] -0.033 | [7] -0.014 | [8] 0.009 | [9] 0.067 | [10] -0.035

TRIM28 (UniProt Q13263)
inactive: [1] 0.005 | [2] 0.011 | [3] -0.013 | [4] -0.035 | [5] -0.014 | [6] 0.013 | [7] -0.02 | [8] 0.004 | [9] -0.035 | [10] 0.009

TPM3 isoform 2 (UniProt P06753)
inactive: [1] -0.03 | [2] -0.06 | [3] -0.004 | [4] -0.023 | [5] -0.017 | [6] -0.034 | [7] 0 | [8] 0.037 | [9] 0.202 | [10] 0.017

Quoted at random: two entries already listed
TOR1AIP2 (UniProt Q8NFQ8)
inactive: [1] -0.012 | [2] -0.01 | [3] 0.013 | [4] 0.059 | [5] 0.011 | [6] -0.033 | [7] -0.014 | [8] 0.009 | [9] 0.067 | [10] -0.035

TRIM28 (UniProt Q13263)
inactive: [1] 0.005 | [2] 0.011 | [3] -0.013 | [4] -0.035 | [5] -0.014 | [6] 0.013 | [7] -0.02 | [8] 0.004 | [9] -0.035 | [10] 0.009

Further entries follow:

TRAF4 (UniProt Q9BUZ4)
inactive: [1] -0.028 | [2] -0.15 | [3] 0.009 | [4] -0.039 | [5] 0.061 | [6] 0.021 | [7] -0.048 | [8] 0.001 | [9] 0.019 | [10] 0.062

TRAM1 (UniProt Q15629)
inactive: [1] -0.152 | [2] 0.117 | [3] -0.075 | [4] 0.074 | [5] -0.138 | [6] 0.072 | [7] -0.07 | [8] 0.02 | [9] -0.152 | [10] -0.022

TRAPPC10 (UniProt P48553)
inactive: [1] -0.138 | [2] 0.018 | [3] 0.014 | [4] -0.065 | [5] -0.094 | [6] 0.02 | [7] 0.044 | [8] -0.066 | [9] -0.001 | [10] -0.01

TPR (UniProt P12270)
inactive: [1] -0.011 | [2] -0.004 | [3] 0.056 | [4] 0.04 | [5] 0.158 | [6] 0.047 | [7] -0.184 | [8] -0.017 | [9] 0.002 | [10] 0.089

TOMM22 (UniProt Q9NS69)
inactive: [1] -0.033 | [2] -0.194 | [3] 0.044 | [4] 0.029 | [5] 0.011 | [6] -0.029 | [7] 0.103 | [8] 0.14 | [9] -0.002 | [10] 0.037

TPP2 (UniProt P29144)
inactive: [1] 0.242 | [2] 0.063 | [3] 0.08 | [4] 0.116 | [5] 0.041 | [6] -0.044 | [7] -0.288 | [8] -0.134 | [9] 0.134 | [10] -0.276

TOR1B (UniProt O14657)
inactive: [1] -0.041 | [2] -0.057 | [3] -0.095 | [4] 0.016 | [5] 0.006 | [6] -0.057 | [7] -0.007 | [8] -0.025 | [9] 0.061 | [10] -0.068

TRIM25 (UniProt Q14258)
inactive: [1] 0.143 | [2] -0.023 | [3] -0.007 | [4] -0.016 | [5] -0.06 | [6] 0.14 | [7] -0.218 | [8] -0.168 | [9] 0.018 | [10] -0.148
